{"source": "paper PMC7819943", "about": "“Rice protein-binding microarrays: a tool to detect cis-acting elements near promoter regions in rice”", "note": "Some of the results follow."}
{"target": "T1, OsSMF1 (Oryza sativa, UniProt Q6ZLB0 1-436)", "T1 sequence": "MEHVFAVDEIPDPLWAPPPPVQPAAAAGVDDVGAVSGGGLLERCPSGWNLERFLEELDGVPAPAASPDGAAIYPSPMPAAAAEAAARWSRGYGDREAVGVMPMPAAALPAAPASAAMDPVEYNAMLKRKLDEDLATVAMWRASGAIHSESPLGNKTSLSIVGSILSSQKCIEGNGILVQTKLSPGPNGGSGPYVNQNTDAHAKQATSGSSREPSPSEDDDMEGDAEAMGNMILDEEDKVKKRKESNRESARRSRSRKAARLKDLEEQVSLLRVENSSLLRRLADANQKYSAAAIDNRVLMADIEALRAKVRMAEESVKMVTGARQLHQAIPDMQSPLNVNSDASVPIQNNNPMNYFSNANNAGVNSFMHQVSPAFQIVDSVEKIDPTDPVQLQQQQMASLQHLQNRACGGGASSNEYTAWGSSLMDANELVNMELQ", "assay": "protein-binding microarray (RPBM); PBS, 2% BSA, 51.3 ng/ul salmon testes DNA, 50 uM zinc acetate, 200 nM TF, 25 C, 1 h; high values mean tight binding", "settings": "protein: recombinant; tags: N-terminal polyhistidine and DsRed monomer fusion (pET32a); chain copies: 2; label: CyDye5-dUTP incorporated in the synthesized complementary strand; 3' TTTTT single-stranded linker to array surface; dsDNA, one strand shown", "procedure,_shortened": "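Transcription factors were each fused at the N-terminus to a polyhistidine tag plus DsRed and expressed in E. coli BL21-CodonPlus before Ni–NTA purification. Binding to a double-stranded custom Agilent array was carried out with 200 nM protein at 25 °C for 1 h in PBS, 2% BSA, salmon testes DNA and 50 µM zinc acetate. The binding signal is per-feature fluorescence intensity, in arbitrary units, on an Axon 4000B scanner.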"}
{"sequence": "TTCTTAATTGTTCGGCTAAGCCAAACACCTAAAACGAACGCGGAGTCACCTAGTGCAG", "binding signal": "4680 fluorescence intensity (a.u.)"}
{"sequence": "TCTCTTCACACCATCACATGTAGTGCGTGTACTCCTAGAGCGGAGTCACCTAGTGCAG", "binding signal": "3800 fluorescence intensity (a.u.)"}
{"sequence": "TAATAATAACTTTTATTTTATTTGATTTTAATATCTTGCACGGAGTCACCTAGTGCAG", "binding signal": "27500 fluorescence intensity (a.u.)"}
{"sequence": "TCGTAGACGAGGTGGAGGTGCGGCCACGATCGACGGGAGCCGGAGTCACCTAGTGCAG", "binding signal": "3180 fluorescence intensity (a.u.)"}
{"sequence": "TCTGGCGACCTCGCTGTCATCGTCGCCGCCGCGGTTCCCCCGGAGTCACCTAGTGCAG", "binding signal": "4280 fluorescence intensity (a.u.)"}
{"sequence": "TTATAATATATATAATAAATAAATGTATGTTTACTTATAGCGGAGTCACCTAGTGCAG", "binding signal": "19300 fluorescence intensity (a.u.)"}
{"sequence": "ACGGACGCTAACTTGCACGGGACGTGGAGGCGGATCTCCGCGGAGTCACCTAGTGCAG", "binding signal": "3760 fluorescence intensity (a.u.)"}
{"sequence": "AGCTGAAGGCCCTCATGACGTGCCTCCATCAGGTATAGATCGGAGTCACCTAGTGCAG", "binding signal": "5220 fluorescence intensity (a.u.)"}
{"sequence": "TTTGTCTATAAATTTAGTCAAACTTGAAACAATTTGATTTCGGAGTCACCTAGTGCAG", "binding signal": "14600 fluorescence intensity (a.u.)"}
{"sequence": "ATAAACCAACAATCGTCTTCCTGTCATCAAGCTGTGTCCTCGGAGTCACCTAGTGCAG", "binding signal": "3510 fluorescence intensity (a.u.)"}
{"sequence": "TATTTGGTCGTCGCTGGTTGTTTGTAGCACGCCAGCTCCACGGAGTCACCTAGTGCAG", "binding signal": "3750 fluorescence intensity (a.u.)"}
{"sequence": "GATCGAGGCAGCGGGCGCAACGTGGCGCGCGCTTTGCTTGCGGAGTCACCTAGTGCAG", "binding signal": "7690 fluorescence intensity (a.u.)"}
{"sequence": "ATGGTGTTGTCTTGTACAGTCCATCACATGGTATTTGATGCGGAGTCACCTAGTGCAG", "binding signal": "4130 fluorescence intensity (a.u.)"}
{"sequence": "GCCGTGATGAAGTGATTGGGTGGCTGCAACAGCTAAAATGCGGAGTCACCTAGTGCAG", "binding signal": "18600 fluorescence intensity (a.u.)"}
{"sequence": "TAGTGAAGTCAGAACATAAATATAGGGCACTATCAGCATACGGAGTCACCTAGTGCAG", "binding signal": "3580 fluorescence intensity (a.u.)"}
{"sequence": "GTGGGCTGTTTCCACGTCGTCCGTTTCTGGGCCGCACGTGCGGAGTCACCTAGTGCAG", "binding signal": "6770 fluorescence intensity (a.u.)"}
{"sequence": "TTCTAATTCACGGATATTGCTGCTACTGTGCCACGTGGCGCGGAGTCACCTAGTGCAG", "binding signal": "18200 fluorescence intensity (a.u.)"}
{"sequence": "GCAGTAGACACGACGTACTTGTCAATGGTGAGGCATTTATCGGAGTCACCTAGTGCAG", "binding signal": "3350 fluorescence intensity (a.u.)"}
{"sequence": "TGAGTGATTTTATGCATTTGATACCATGGTGCCCATATATCGGAGTCACCTAGTGCAG", "binding signal": "31900 fluorescence intensity (a.u.)"}
{"sequence": "CTAAGGGTATTCCCAACCCAATGACTAGGATTGTGTCTATCGGAGTCACCTAGTGCAG", "binding signal": "6910 fluorescence intensity (a.u.)"}
{"sequence": "AAATAAAAGTTCCTCACACGCACGCCCACGTCAGCGCATCCGGAGTCACCTAGTGCAG", "binding signal": "20400 fluorescence intensity (a.u.)"}
{"sequence": "GAAGTATCAGAGACAGTTGCTGATGTGGTCCAACTTTCTACGGAGTCACCTAGTGCAG", "binding signal": "6090 fluorescence intensity (a.u.)"}
{"sequence": "AGTGTATCCACATGGTCGAAGGTCGGTGTCATCACGATGACGGAGTCACCTAGTGCAG", "binding signal": "3900 fluorescence intensity (a.u.)"}
{"sequence": "TTTGTGCGTGTTACGAGTGACTTGCGTTTATATCCTGCTTCGGAGTCACCTAGTGCAG", "binding signal": "6490 fluorescence intensity (a.u.)"}
{"sequence": "GCCGGATCAGGCGCGTCGGTGTGGAGGAATCGGCAGGGGTCGGAGTCACCTAGTGCAG", "binding signal": "3820 fluorescence intensity (a.u.)"}
{"sequence": "GGCATTGATTCCCTGCTCGTTCATGTAAATGCGGCCATGTCGGAGTCACCTAGTGCAG", "binding signal": "6470 fluorescence intensity (a.u.)"}
{"sequence": "CAGCTTCTGAACAATCCACCGAATTGGCTCACGCGCTCAACGGAGTCACCTAGTGCAG", "binding signal": "20300 fluorescence intensity (a.u.)"}
{"sequence": "ATTCCTTCGTCTGTTGCTGCTGACTGCGCGGGGCGGAAGACGGAGTCACCTAGTGCAG", "binding signal": "3600 fluorescence intensity (a.u.)"}
{"sequence": "AAGGAATAAATACGTGTCGACCAATGATTGAACCACACAACGGAGTCACCTAGTGCAG", "binding signal": "5350 fluorescence intensity (a.u.)"}
{"sequence": "ACGACACTACCAATTGTTTGGCCTTCAATCCAAACTAGCACGGAGTCACCTAGTGCAG", "binding signal": "3500 fluorescence intensity (a.u.)"}
{"sequence": "CTGCTGTATGTCATGACGCAGACTGAAATGCTACTCAAATCGGAGTCACCTAGTGCAG", "binding signal": "4130 fluorescence intensity (a.u.)"}
{"sequence": "GTAGTATTACGCAGTTCGCACACTATACTCCGATCCGGCCCGGAGTCACCTAGTGCAG", "binding signal": "15800 fluorescence intensity (a.u.)"}
{"sequence": "CCGCCTCCTCACTCACTCCCCTCCCCACCACGCACGCACCCGGAGTCACCTAGTGCAG", "binding signal": "5210 fluorescence intensity (a.u.)"}
{"sequence": "ATTGGAAGCATATACATTCGTGATATCAAATGAGATGAGTCGGAGTCACCTAGTGCAG", "binding signal": "3520 fluorescence intensity (a.u.)"}
{"sequence": "AAATCAAAATCATTTGCGTCAAATCACATTGGCATGCTCACGGAGTCACCTAGTGCAG", "binding signal": "3280 fluorescence intensity (a.u.)"}
{"sequence": "TTAAATACTCAGCTTGCGCTAGATTATAAATTCAACAAGACGGAGTCACCTAGTGCAG", "binding signal": "3310 fluorescence intensity (a.u.)"}
{"sequence": "GGCGAACCGGACACGCAGCCACGCAGGTCGCCATGGCCGACGGAGTCACCTAGTGCAG", "binding signal": "3200 fluorescence intensity (a.u.)"}
{"sequence": "ACGCCATGTGCTGGACAGTCTCACTGGGTTTTGTTGCGGGCGGAGTCACCTAGTGCAG", "binding signal": "27100 fluorescence intensity (a.u.)"}
{"sequence": "TCCCGAAACCCGACACGCGGCACCGATCGATCGATCGATCCGGAGTCACCTAGTGCAG", "binding signal": "3240 fluorescence intensity (a.u.)"}
{"sequence": "GGCGTGGCCACCTGCGCGTGCTGACGCGTCAGCGAGGCGCCGGAGTCACCTAGTGCAG", "binding signal": "14700 fluorescence intensity (a.u.)"}
{"sequence": "TGTGAAGACCCTGGATGACTCCTCCGTCACTGAAGCATCCCGGAGTCACCTAGTGCAG", "binding signal": "3820 fluorescence intensity (a.u.)"}
{"sequence": "ATTTAGACTGCACAAATGCAGGGCCACATGTGTCACGCCCCGGAGTCACCTAGTGCAG", "binding signal": "3860 fluorescence intensity (a.u.)"}
{"sequence": "GAACTTGAGAAGGAAAGACGCAGGTGCGCTCTCTGAGGGGCGGAGTCACCTAGTGCAG", "binding signal": "3210 fluorescence intensity (a.u.)"}
{"sequence": "ACGGACTTGTTGCGTGCGTGTGTGCCCATGGATTTGAACTCGGAGTCACCTAGTGCAG", "binding signal": "3500 fluorescence intensity (a.u.)"}
{"sequence": "AATTTTGACGTGTCACGTCAGATATACGGACATACATTTGCGGAGTCACCTAGTGCAG", "binding signal": "17300 fluorescence intensity (a.u.)"}
{"sequence": "AGCCAGATTTGTTGTCTTAGAAGGGATCACATGACTCATACGGAGTCACCTAGTGCAG", "binding signal": "7180 fluorescence intensity (a.u.)"}
{"sequence": "ATCTCCTGGAACACGTACTTTGCATTTCCCGTTTTCCAGCCGGAGTCACCTAGTGCAG", "binding signal": "4460 fluorescence intensity (a.u.)"}
{"sequence": "TTAAGGTGGCGGCCTCAAGATTTGGTGGCAGCGTCAACTGCGGAGTCACCTAGTGCAG", "binding signal": "3890 fluorescence intensity (a.u.)"}
{"sequence": "AAAACCGTGGATATGCATAATACGTCGTGATCGTGTCATTCGGAGTCACCTAGTGCAG", "binding signal": "4440 fluorescence intensity (a.u.)"}
{"sequence": "CCGTCAACCTCGCCGTGCGCCTCCCCGAGCCCGACGACGGCGGAGTCACCTAGTGCAG", "binding signal": "27000 fluorescence intensity (a.u.)"}
{"sequence": "ATCATCCATGGACCATGGTTCAATTCGTGGCAACTTAACCCGGAGTCACCTAGTGCAG", "binding signal": "3510 fluorescence intensity (a.u.)"}
{"sequence": "GTGGGGCCCGTTTGACCGTTTGACAGGTGGCGCGATTTTCCGGAGTCACCTAGTGCAG", "binding signal": "3500 fluorescence intensity (a.u.)"}
{"sequence": "CTCTCTCTCTCTCTCTCTCTCTATATATATATATATATATCGGAGTCACCTAGTGCAG", "binding signal": "3780 fluorescence intensity (a.u.)"}
{"sequence": "TGCCCTTATTTGCCCAATCACTAAGCGGATGATGACTAACCGGAGTCACCTAGTGCAG", "binding signal": "3360 fluorescence intensity (a.u.)"}
